Experiment [1] has as its target Roc-COR domain construct of the Chlorobium tepidum Roco protein (CtRoc-COR) (Chlorobium tepidum) (UniProt Q8KC98). Briefly: AUC; sedimentation velocity, with 100 µM GppNHp; 20 °C, 20 mM HEPES pH 7.5, 150 mM NaCl, 5 mM MgCl2, 5% glycerol; 0.57 mg ml^-1 (4.5 µM) CtRoco or 0.3 mg ml^-1 (4.6 µM) CtRoc-COR; both purified.
Experiment [2] has the same target. Briefly: SEC-MALS; GppNHp-bound (1 mM pre-incubation, 200 µM in buffer); 10 µl of 8 mg ml^-1 injected on a Bio SEC-3 column; buffer as for SEC-SAXS; both purified. On the technique in general: SEC sorts molecules by how far they enter the pores of the column.
Experiment [3] has as its target Roco protein from Chlorobium tepidum (CtRoco), full length (Chlorobium tepidum) (UniProt Q8KC98). The experiment in a line: negative-stain EM; time-resolved, multiple turnover: 1 mM GTP or GppNHp added to 0.01 mg ml^-1 CtRoco, samples taken every 2 min, 25 °C; both purified.
The target is the same in experiment [4]. Briefly: AUC; sedimentation velocity, with 100 µM GppNHp; 20 °C, 20 mM HEPES pH 7.5, 150 mM NaCl, 5 mM MgCl2, 5% glycerol; 0.57 mg ml^-1 (4.5 µM) CtRoco or 0.3 mg ml^-1 (4.6 µM) CtRoc-COR; both purified.
Experiment [5] has the same target. The experiment in a line: negative-stain EM; time-resolved, single turnover: 1 µM CtRoco mixed with 1 µM GTP, samples at 0-4500 s diluted to 0.01 mg ml^-1 right before spotting, 25 °C; both purified.
For experiment [6] the target is unchanged. The experiment in a line: negative-stain EM; CtRoco at 0.01 mg ml^-1 (0.08 µM) pre-incubated with 1 mM GDP; uranyl formate stain; class averages; both purified.
For experiment [7] the target is unchanged. The experiment in a line: SEC-MALS; GppNHp-bound (1 mM pre-incubation, 200 µM in buffer); 10 µl of 8 mg ml^-1 injected on a Bio SEC-3 column; buffer as for SEC-SAXS; both purified.
For experiment [8] the target is unchanged. Briefly: SEC-SAXS; GppNHp-bound: pre-incubated with 1 mM GppNHp, 200 µM GppNHp in the buffer; 50 µl of 8 mg ml^-1 injected on a Bio SEC-3 column; 20 mM Hepes pH 7.5, 150 mM NaCl, 5 mM MgCl2, 5% glycerol, 1 mM DTT; both purified.
For experiment [9], the target named is CtRoco L487A mutant, full length (Chlorobium tepidum) (UniProt Q8KC98). The experiment in a line: SEC-SAXS; nucleotide-free protein; 50 µl of 8 mg ml^-1 injected on a Bio SEC-3 column; 20 mM Hepes pH 7.5, 150 mM NaCl, 5 mM MgCl2, 5% glycerol, 1 mM DTT; mass from Porod volume; both purified.
Experiment [10] has the same target. The experiment in a line: SEC-SAXS; GDP-bound: pre-incubated with 1 mM GDP, 200 µM GDP in the buffer; 50 µl of 8 mg ml^-1 injected on a Bio SEC-3 column; 20 mM Hepes pH 7.5, 150 mM NaCl, 5 mM MgCl2, 5% glycerol, 1 mM DTT; both purified.
Experiment [11] shares this target. The experiment in a line: SEC-SAXS; GppNHp-bound: pre-incubated with 1 mM GppNHp, 200 µM GppNHp in the buffer; 50 µl of 8 mg ml^-1 injected on a Bio SEC-3 column; 20 mM Hepes pH 7.5, 150 mM NaCl, 5 mM MgCl2, 5% glycerol, 1 mM DTT; both purified.

Substitutions are numbered along the chain they refer to. Names and notes keep the numbering of the source. No constants are given. Whether binding was seen depends on the method and setting. Some results given as binding are weak or reduced against the parent protein; the word gives no strength.

B1: Roc-COR domain construct of the Chlorobium tepidum Roco protein (CtRoc-COR) (domain or fragment, UniProt Q8KC98 412-946, looked up)
chain: DNPLESPPPEIVKQGKEAVRQYFQSIEEARSKGEALVHLQEIKVHLIGDGMAGKTSLLKQLIGETFDPKESQTHGLNVVTKQAPNIKGLENDDELKECLFHFWDFGGQEIMHASHQFFMTRSSVYMLLLDSRTDSNKHYWLRHIEKYGGKSPVIVVMNKIDENPSYNIEQKKINERFPAIENRFHRISCKNGDGVESIAKSLKSAVLHPDSIYGTPLAPSWIKVKEKLVEATTAQRYLNRTEVEKICNDSGITDPGERKTLLGYLNNLGIVLYFEALDLSEIYVLDPHWVTIGVYRIINSSKTKNGHLNTSALGYILNEEQIRCDEYDPAKNNKFTYTLLEQRYLLDIMKQFELCYDEGKGLFIIPSNLPTQIDNEPEITEGEPLRFIMKYDYLPSTIIPRLMIAMQHQILDRMQWRYGMVLKSQDHEGALAKVVAETKDSTITIAIQGEPRCKREYLSIIWYEIKKINANFTNLDVKEFIPLPGHPDELVEYKELLGLEKMGRDEYVSGKLEKVFSVSKMLDSVISKEERNKER
notes: Roco protein from Chlorobium tepidum (CtRoco), central Roc-COR module, a.a; 412-946; The monomer chain is written; also called CtRoc-COR wt; Roc-COR module; source: E. coli BL21 (DE3), purified (Ni-NTA IMAC, EDTA treatment, Superdex S200 SEC)
As to B1, the binding entry in experiment [1] and in experiment [2] was “binds weakly” in each case.

B2: Roco protein from Chlorobium tepidum (CtRoco), full length (natural protein, UniProt Q8KC98 1-1102, looked up)
chain: MSDLDVIRQIEQELGMQLEPVDKLKWYSKGYKLDKDQRVTAIGLYDCGSDTLDRIIQPLESLKSLSELSLSSNQITDISPLASLNSLSMLWLDRNQITDIAPLASLNSLSMLWLFGNKISDIAPLESLKSLTELQLSSNQITDIAPLASLKSLTELSLSGNNISDIAPLESLKSLTELSLSSNQITDIAPLASLKSLTELSLSSNQISDIAPLESLKSLTELQLSRNQISDIAPLESLKSLTELQLSSNQITDIAPLASLKSLTELQLSRNQISDIAPLESLNSLSKLWLNGNQITDIAPLASLNSLTELELSSNQITDIAPLASLKSLSTLWLSSNQISDIAPLASLESLSELSLSSNQISDISPLASLNSLTGFDVRRNPIKRLPETITGFDMEILWNDFSSSGFITFFDNPLESPPPEIVKQGKEAVRQYFQSIEEARSKGEALVHLQEIKVHLIGDGMAGKTSLLKQLIGETFDPKESQTHGLNVVTKQAPNIKGLENDDELKECLFHFWDFGGQEIMHASHQFFMTRSSVYMLLLDSRTDSNKHYWLRHIEKYGGKSPVIVVMNKIDENPSYNIEQKKINERFPAIENRFHRISCKNGDGVESIAKSLKSAVLHPDSIYGTPLAPSWIKVKEKLVEATTAQRYLNRTEVEKICNDSGITDPGERKTLLGYLNNLGIVLYFEALDLSEIYVLDPHWVTIGVYRIINSSKTKNGHLNTSALGYILNEEQIRCDEYDPAKNNKFTYTLLEQRYLLDIMKQFELCYDEGKGLFIIPSNLPTQIDNEPEITEGEPLRFIMKYDYLPSTIIPRLMIAMQHQILDRMQWRYGMVLKSQDHEGALAKVVAETKDSTITIAIQGEPRCKREYLSIIWYEIKKINANFTNLDVKEFIPLPGHPDELVEYKELLGLEKMGRDEYVSGKLEKVFSVSKMLDSVISKEERNKERLMGDINIKLENIGNPTIPIHQQVEVNVSQETVQHVENLQGFFENLKADILREAELEIDDPKERKRLANELELAENAITKMDAAVKSGKNKLKPDVKDRLGEFIDNLANENSRLRKGIALVMNGAEKVQKLARYYNNVAPFFDLPSVPPVLLGKEKT
notes: Roco protein from Chlorobium tepidum (CtRoco), a.a; 1-1102: LRR domain (1-411), Roc-COR module (412-946), C-terminal region (947-1102); also called CtRoco wt; C. tepidum Roco protein; source: E. coli BL21 (DE3), purified (Ni-NTA IMAC, EDTA treatment, Superdex S200 SEC)
As for B2, the binding result in experiment [3] is recorded as “binds weakly”; in experiment [4], “binds”; in experiment [5] it was “binds”; in experiment [6], “binds”; in experiment [7], “binds”; in [8], “binds”.

B3: CtRoco L487A mutant, full length (natural protein, Chlorobium tepidum, UniProt Q8KC98 1-1102, looked up)
chain: B2 chain with L487A
notes: Roco protein from Chlorobium tepidum (CtRoco), a.a; 1-1102, with L487A (analogue of LRRK2 I1371V); also called L487A CtRoco
Consider B3, for which the binding result in experiment [9], in [10] and in experiment [11] was “binds” in each case.

These data come from PMC5714945, “A homologue of the Parkinson’s disease-associated protein LRRK2 undergoes a monomer-dimer transition during GTP turnover” (Nature Communications, 2017).
